# The supplement of paper PMC4635364
# Counter-ions that a name gives are not always drawn. This is one part of the list. Repeats in this data set agree poorly, so a single value says little.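 ReNCell VM, a human fetal ventral-midbrain neural progenitor line, was differentiated without mitogens. Blinded raters scored images stained for doublecortin (early neurons) or tyrosine hydroxylase (dopaminergic neurons) against untreated wells (0 = no change). Scores were averaged across repeats and both raters, and compounds averaging 2 or more were selected as hits for retesting.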
# Assays:
# [1] = test system: ReNCell VM; test: neuronal differentiation score (DCX+ cell fraction vs untreated, manual image score) (score (-3 to 3)); higher = more neuronal differentiation; settings: 2 uM, 2 weeks
# [2] = test system: ReNCell VM; test: dopaminergic neuron differentiation score (TH+ cell fraction vs untreated, manual image score) (score (0 to 3)); higher = more TH+ dopaminergic neuron differentiation; settings: 2 uM, 4 weeks, BDNF 10 ng/ml + GDNF 10 ng/ml
smiles,measurement,setting,value
O=C(O)c1cn(-c2ccc(F)cc2)c2cc(N3CCNCC3)c(F)cc2c1=O,neuronal differentiation score,[1]; library: Spectrum,inactive: 0
same,dopaminergic neuron differentiation score,[2]; library: Spectrum,inactive: 0
Clc1ccc(Cn2c(CN3CCCC3)nc3ccccc32)cc1,neuronal differentiation score,[1]; library: Spectrum,inactive: 0
same,dopaminergic neuron differentiation score,[2]; library: Spectrum,inactive: 0
CSCC[C@H](N)C(=O)O [L-Methionine],neuronal differentiation score,[1]; library: Phytochemical,inactive: 0
same,dopaminergic neuron differentiation score,[2]; library: Phytochemical,inactive: 0
CCc1ccc(CCOc2ccc(CC3SC(=O)NC3=O)cc2)nc1 (stereo unspecified) [Pioglitazone],neuronal differentiation score,[1]; library: Prestwick,inactive: 0
same,dopaminergic neuron differentiation score,[2]; library: Prestwick,inactive: 0
CCCN(CCC)S(=O)(=O)c1ccc(C(=O)O)cc1 [Probenecid],neuronal differentiation score,[1]; library: Prestwick,inactive: 0
same,dopaminergic neuron differentiation score,[2]; library: Prestwick,inactive: 0
CCOC(=O)N1CCC(=C2c3ccc(Cl)cc3CCc3cccnc32)CC1,neuronal differentiation score,[1]; library: Spectrum,inactive: 0
same,dopaminergic neuron differentiation score,[2]; library: Spectrum,inactive: 0
NC(=O)C(c1ccccc1)(c1ccccc1)[C@@H]1CCN(CCc2ccc3c(c2)CCO3)C1 [Darifenacin hydrobromide],neuronal differentiation score,[1]; library: Prestwick,inactive: 0
same,dopaminergic neuron differentiation score,[2]; library: Prestwick,inactive: 0
COc1ccc(NS(=O)(=O)c2ccc(N)cc2)nn1 [Sulfamethoxypyridazine],neuronal differentiation score,[1]; library: Prestwick,inactive: 0
same,dopaminergic neuron differentiation score,[2]; library: Prestwick,inactive: 0
CC(=O)OCC[N+](C)(C)C,neuronal differentiation score,[1]; library: Spectrum,inactive: 0
same,dopaminergic neuron differentiation score,[2]; library: Spectrum,inactive: 0
CNCCc1ccccn1,neuronal differentiation score,[1]; library: Spectrum,inactive: 0
same,dopaminergic neuron differentiation score,[2]; library: Spectrum,inactive: 0
O=c1c(O)c(-c2ccc(O)c(O)c2)oc2cc(O)cc(O)c12 [Quercetin],neuronal differentiation score,[1]; library: Tocriscreen,inactive: 0
same,dopaminergic neuron differentiation score,[2]; library: Tocriscreen,active: 3
Cc1cc(C)c(NC(=O)C[C@H](CC(=O)O)c2cccc3ccccc23)c(C(=O)N2CCC3(CCCC3)CC2)c1,neuronal differentiation score,[1]; library: LOPAC,inactive: 0
same,dopaminergic neuron differentiation score,[2]; library: LOPAC,inactive: 0
CCOC(=O)[C@H](CCc1ccccc1)N[C@@H](C)C(=O)N1Cc2cc(OC)c(OC)cc2C[C@H]1C(=O)O [Moexipril hydrochloride],neuronal differentiation score,[1]; library: Tocriscreen,inactive: 0
same,dopaminergic neuron differentiation score,[2]; library: Tocriscreen,inactive: 0
CN(C)C(=O)C(=O)c1cn(C)c2cc(Cl)c(C(=O)N3CCC(Cc4ccc(F)cc4)CC3)cc12,neuronal differentiation score,[1]; library: Tocriscreen,inactive: 0
same,dopaminergic neuron differentiation score,[2]; library: Tocriscreen,inactive: 0
COc1cc(C(=O)OCCCN2CCCN(CCCOC(=O)c3cc(OC)c(OC)c(OC)c3)CC2)cc(OC)c1OC [Dilazep hydrochloride],neuronal differentiation score,[1]; library: LOPAC,inactive: 1
same,dopaminergic neuron differentiation score,[2]; library: LOPAC,inactive: 0
Cc1cc(N)c2ccccc2[n+]1CCCCCCCCCC[n+]1c(C)cc(N)c2ccccc21 [Dequalinium dichloride],neuronal differentiation score,[1]; library: Prestwick,inactive: 0
same,dopaminergic neuron differentiation score,[2]; library: Prestwick,inactive: 0
O=C(C1CCCCC1)N1CC(=O)N2CCc3ccccc3C2C1 (stereo unspecified),neuronal differentiation score,[1]; library: Spectrum,inactive: 0
same,dopaminergic neuron differentiation score,[2]; library: Spectrum,inactive: 1
"Cc1ccc(OCC(O)C(C)NC(C)C)c2c1CCC2 (stereo unspecified) [ICI 118,551 hydrochloride]",neuronal differentiation score,[1]; library: LOPAC,inactive: 0
same,dopaminergic neuron differentiation score,[2]; library: LOPAC,active: 2
O=c1c2ccccc2[nH]c(=S)n1CCN1CCC(=C(c2ccc(F)cc2)c2ccc(F)cc2)CC1 [Diacylglycerol Kinase Inhibitor II],neuronal differentiation score,[1]; library: LOPAC,inactive: 0
same,dopaminergic neuron differentiation score,[2]; library: LOPAC,inactive: 0
N[C@@H](C(=O)O)c1ccc(C(=O)O)c(C(=O)O)c1,neuronal differentiation score,[1]; library: Tocriscreen,inactive: 0
same,dopaminergic neuron differentiation score,[2]; library: Tocriscreen,inactive: 0
"COC(=O)[C@@H](N)Cc1ccc(O)c(O)c1 [L-3,4-Dihydroxyphenylalanine methyl ester hydrochloride]",neuronal differentiation score,[1]; library: LOPAC,inactive: 0
same,dopaminergic neuron differentiation score,[2]; library: LOPAC,inactive: 0
CSc1nc2cc(Cl)c(Oc3cccc(Cl)c3Cl)cc2[nH]1,neuronal differentiation score,[1]; library: Spectrum,inactive: 0
same,dopaminergic neuron differentiation score,[2]; library: Spectrum,inactive: 0
Cc1ccc(C(=O)Nc2ccc(S(=O)(=O)O)c3cc(S(=O)(=O)O)cc(S(=O)(=O)O)c23)cc1NC(=O)c1cccc(NC(=O)Nc2cccc(C(=O)Nc3cc(C(=O)Nc4ccc(S(=O)(=O)O)c5cc(S(=O)(=O)O)cc(S(=O)(=O)O)c45)ccc3C)c2)c1 [Suramin hexasodium salt],neuronal differentiation score,[1]; library: Tocriscreen,inactive: 0
same,dopaminergic neuron differentiation score,[2]; library: Tocriscreen,inactive: 0
COc1ccc(-c2cc(=O)c3c(OC)c(OC)c(OC)c(OC)c3o2)cc1OC,neuronal differentiation score,[1]; library: Spectrum,inactive: 0
same,dopaminergic neuron differentiation score,[2]; library: Spectrum,inactive: 0
CNCc1ccccc1,neuronal differentiation score,[1]; library: Spectrum,inactive: 0
same,dopaminergic neuron differentiation score,[2]; library: Spectrum,inactive: 0
N=C(NC(=O)c1nc(Cl)c(N)nc1N)Nc1ccccc1 [Phenamil methanesulfonate],neuronal differentiation score,[1]; library: LOPAC,inactive: -3
same,dopaminergic neuron differentiation score,[2]; library: LOPAC,inactive: 0
CN(C)CCC[C@@]1(c2ccc(F)cc2)OCc2cc(C#N)ccc21,neuronal differentiation score,[1]; library: Spectrum,inactive: 0
same,dopaminergic neuron differentiation score,[2]; library: Spectrum,inactive: 1
NCc1ccccc1CC(=O)N[C@@H]1C(=O)N2C(C(=O)O)=C(CSc3nnnn3CC(=O)O)CS[C@H]12,neuronal differentiation score,[1]; library: Spectrum,inactive: 0
same,dopaminergic neuron differentiation score,[2]; library: Spectrum,inactive: 0
O=c1cc(-c2cc(O)c(O)c(O)c2)oc2cc(O)cc(O)c12,neuronal differentiation score,[1]; library: Spectrum,inactive: 0
same,dopaminergic neuron differentiation score,[2]; library: Spectrum,inactive: 0
C[C@@H]1O[C@@H](O[C@H]2C(=O)c3c(O)cc(O)cc3O[C@@H]2c2ccc(O)c(O)c2)[C@H](O)[C@H](O)[C@H]1O [Astilbin],neuronal differentiation score,[1]; library: Phytochemical,inactive: 0
same,dopaminergic neuron differentiation score,[2]; library: Phytochemical,active: 2
Clc1ccc2nsnc2c1NC1=NCCN1 [Tizanidine HCl],neuronal differentiation score,[1]; library: Prestwick,inactive: 0
same,dopaminergic neuron differentiation score,[2]; library: Prestwick,inactive: 0
N[C@H]1CONC1=O [L-Cycloserine],neuronal differentiation score,[1]; library: LOPAC,inactive: 0
same,dopaminergic neuron differentiation score,[2]; library: LOPAC,inactive: 0
NS(=O)(=O)c1cc2c(cc1Cl)N=C(CSCc1ccccc1)NS2(=O)=O,neuronal differentiation score,[1]; library: Spectrum,inactive: 0
same,dopaminergic neuron differentiation score,[2]; library: Spectrum,inactive: 0
NC1C=CC=C(C(=O)O)C1 (stereo unspecified) [Gabaculine hydrochloride],neuronal differentiation score,[1]; library: LOPAC,inactive: 0
same,dopaminergic neuron differentiation score,[2]; library: LOPAC,inactive: 0
O=C(O)c1cc(=O)c2c(OCC(O)COc3cccc4oc(C(=O)O)cc(=O)c34)cccc2o1 [Cromolyn disodium salt],neuronal differentiation score,[1]; library: Prestwick,inactive: 0
same,dopaminergic neuron differentiation score,[2]; library: Prestwick,inactive: 0
N[C@@H](Cc1cc(I)c(Oc2ccc(O)c(I)c2)c(I)c1)C(=O)O [LIOTHYRONINE (L- isomer) SODIUM],neuronal differentiation score,[1]; library: Spectrum,inactive: 0
same,dopaminergic neuron differentiation score,[2]; library: Spectrum,inactive: 0
Nc1c2c(nc3ccccc13)CCCC2O (stereo unspecified) [Hydroxytacrine maleate],neuronal differentiation score,[1]; library: LOPAC,inactive: 0
same,dopaminergic neuron differentiation score,[2]; library: LOPAC,inactive: 0
N[C@@H]1CONC1=O,neuronal differentiation score,[1]; library: Spectrum,inactive: 1
same,dopaminergic neuron differentiation score,[2]; library: Spectrum,inactive: 0
NC(=O)NS(=O)(=O)c1ccc(N)cc1,neuronal differentiation score,[1]; library: Spectrum,inactive: 0
same,dopaminergic neuron differentiation score,[2]; library: Spectrum,inactive: 0
N=C(N)NC(=N)Nc1ccccc1 [1-Phenylbiguanide hydrochloride],neuronal differentiation score,[1]; library: Tocriscreen,inactive: 0
same,dopaminergic neuron differentiation score,[2]; library: Tocriscreen,inactive: 0
CCC1(C)CC(=O)NC1=O (stereo unspecified),neuronal differentiation score,[1]; library: Spectrum,inactive: 0
same,dopaminergic neuron differentiation score,[2]; library: Spectrum,inactive: 0
CC(C)NCC(O)c1ccc2ccccc2c1 (stereo unspecified),neuronal differentiation score,[1]; library: Spectrum,inactive: 0
same,dopaminergic neuron differentiation score,[2]; library: Spectrum,inactive: 0
C1CNCCN1,neuronal differentiation score,[1]; library: Spectrum,inactive: 0
same,dopaminergic neuron differentiation score,[2]; library: Spectrum,inactive: 0
CN1CCC[C@@H]1CCO[C@](C)(c1ccccc1)c1ccc(Cl)cc1,neuronal differentiation score,[1]; library: Spectrum,inactive: 0
same,dopaminergic neuron differentiation score,[2]; library: Spectrum,inactive: 0
"OCC(O)CN1CCN(c2ccccc2)CC1 (racemic) [Dropropizine (R,S)]",neuronal differentiation score,[1]; library: Prestwick,inactive: 0
same,dopaminergic neuron differentiation score,[2]; library: Prestwick,inactive: 0
CC(Nc1ccc2oc(=O)ccc2c1)=C1C(=O)CC2C1C2(C)C (stereo unspecified),neuronal differentiation score,[1]; library: Natural,inactive: 0
same,dopaminergic neuron differentiation score,[2]; library: Natural,inactive: 0
O=C(CCc1ccc(O)cc1)c1c(O)cc(O)cc1O[C@@H]1OC(CO)[C@@H](O)[C@@H](O)C1O (stereo partly specified) [Phloridzin],neuronal differentiation score,[1]; library: Phytochemical,inactive: 1
same,dopaminergic neuron differentiation score,[2]; library: Phytochemical,inactive: 0
O=C1CN(/N=C/c2ccc([N+](=O)[O-])o2)C(=O)N1 [Nitrofurantoin],neuronal differentiation score,[1]; library: Prestwick,inactive: 0
same,dopaminergic neuron differentiation score,[2]; library: Prestwick,inactive: 0
"CC1(C)Oc2ccc3ccc(=O)oc3c2CC1=O [8,8-dimethyl-10h-pyrano[2,3-f]chromene-2,9-dione]",neuronal differentiation score,[1]; library: Natural,inactive: 0
same,dopaminergic neuron differentiation score,[2]; library: Natural,inactive: 0
Cc1cc(C(C)(C)CC(C)(C)C)ccc1OCCOCC[N+](C)(C)Cc1ccccc1,neuronal differentiation score,[1]; library: Spectrum,inactive: 0
same,dopaminergic neuron differentiation score,[2]; library: Spectrum,inactive: 0
CO[C@@]1(NC(=O)C2SC(=C(C(N)=O)C(=O)O)S2)C(=O)N2C(C(=O)O)=C(CSc3nnnn3C)CS[C@@H]21 (stereo partly specified) [Cefotetan],neuronal differentiation score,[1]; library: Prestwick,inactive: 0
same,dopaminergic neuron differentiation score,[2]; library: Prestwick,inactive: 0
CCN(CC)C(=O)N1CCN(C)CC1,neuronal differentiation score,[1]; library: Spectrum,inactive: 1
same,dopaminergic neuron differentiation score,[2]; library: Spectrum,inactive: 0
Oc1c(I)cc(Cl)c2cccnc12,neuronal differentiation score,[1]; library: Spectrum,inactive: 0
same,dopaminergic neuron differentiation score,[2]; library: Spectrum,inactive: 0

# Shown as tab-separated lines: part of the list above.
smiles	measurement	setting	value
CCOC(=O)[C@H](CCc1ccccc1)N[C@@H](C)C(=O)N1Cc2cc(OC)c(OC)cc2C[C@H]1C(=O)O [Moexipril hydrochloride]	dopaminergic neuron differentiation score	[2]; library: Tocriscreen	inactive: 0
CN(C)C(=O)C(=O)c1cn(C)c2cc(Cl)c(C(=O)N3CCC(Cc4ccc(F)cc4)CC3)cc12	neuronal differentiation score	[1]; library: Tocriscreen	inactive: 0
same	dopaminergic neuron differentiation score	[2]; library: Tocriscreen	inactive: 0

# 2 entries from above, with bars between the fields.
smiles | measurement | setting | value
CCc1ccc(CCOc2ccc(CC3SC(=O)NC3=O)cc2)nc1 (stereo unspecified) [Pioglitazone] | dopaminergic neuron differentiation score | [2]; library: Prestwick | inactive: 0
CCOC(=O)[C@H](CCc1ccccc1)N[C@@H](C)C(=O)N1Cc2cc(OC)c(OC)cc2C[C@H]1C(=O)O [Moexipril hydrochloride] | dopaminergic neuron differentiation score | [2]; library: Tocriscreen | inactive: 0
